# Results as given in the supplement of paper PMC8728848.
# The list shows a part of the results.
# B1: SJCP3842 (Schistosoma japonicum) (protein)
# chain: MFKMRIINLVNISTVLLLINLLQTKSRLVGKENGFMLTVSIYGAQLSDKMTSVPVSWTIDYEDPEKSAFKKLVTDSCDTFSEYVKSQIPKGSVDGQCTSHIFQRPGSGSGVSISLTLSFIYVDVTQPDTVALKTELEKHFANFVTIHSHKITQAQFRINQKAIVIPTGDKDAIDGSKWKIIAIIALVALAIVVIGGFIYICVK
# Columns and labels:
# Assay in all cases: glycan array binding signal (z-score within array); higher = stronger binding
# Conditions in all cases: glycan notation: IUPAC condensed, linker removed
# Neu5Ac(a2-8)Neu5Ac = target: Neu5Ac(a2-8)Neu5Ac
# How it was run: (§1)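 Arrays were curated from the Consortium for Functional Glycomics database, 3228 in total, and kept only where the protein sequence was available. Binding is expressed as a within-array Z-score. This score was averaged across arrays of the same protein sequence at different concentrations or buffers and across linkers, and negative values can be read as non-binding.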
# [1] = target: Neu5Ac(a2-8)Neu5Ac(a2-3)Gal(b1-3)GalNAc(b1-4)[Neu5Ac(a2-3)]Gal(b1-4)Glc
# How it was run: as §1
# [2] = target: Neu5Ac(a2-8)Neu5Ac(a2-3)Gal(b1-3)GalNAc(b1-4)[Neu5Ac(a2-8)Neu5Ac(a2-3)]Gal(b1-4)Glc
# How it was run: as §1
# [3] = target: Neu5Ac(a2-8)Neu5Ac(a2-3)Gal(b1-4)Glc
# How it was run: as §1
# [4] = target: Neu5Ac(a2-8)Neu5Ac(a2-3)Gal(b1-4)GlcNAc
# How it was run: as §1
# [5] = target: Neu5Ac(a2-8)Neu5Ac(a2-3)[Gal(b1-3)GalNAc(b1-4)]Gal(b1-4)Glc
# How it was run: as §1
# [6] = target: Neu5Ac(a2-8)Neu5Ac(a2-3)[GalNAc(b1-4)]Gal(b1-4)Glc
# How it was run: as §1
# [7] = target: Neu5Ac(a2-8)Neu5Ac(a2-8)Neu5Ac
# How it was run: as §1
# [8] = target: Neu5Ac(a2-8)Neu5Ac(a2-8)Neu5Ac(a2-3)Gal(b1-4)Glc
# How it was run: as §1
# [9] = target: Neu5Ac(a2-8)Neu5Ac(a2-8)Neu5Ac(a2-3)[Gal(b1-3)GalNAc(b1-4)]Gal(b1-4)Glc
# How it was run: as §1
# [10] = target: Neu5Ac(a2-8)Neu5Ac(a2-8)Neu5Ac(a2-3)[GalNAc(b1-4)]Gal(b1-4)Glc
# How it was run: as §1
# [11] = target: Neu5Ac(a2-8)Neu5Ac(a2-8)Neu5Ac(a2-8)Neu5Ac(a2-3)[GalNAc(b1-4)]Gal(b1-4)Glc
# How it was run: as §1
# [12] = target: Neu5Ac(a2-8)Neu5Gc(a2-3)Gal(b1-4)GlcNAc
# How it was run: as §1
# [13] = target: Neu5Ac(b2-6)Gal(b1-4)GlcNAc
# How it was run: as §1
# Neu5Ac(b2-6)GalNAc = target: Neu5Ac(b2-6)GalNAc
# How it was run: as §1
# [14] = target: Neu5Ac9Ac(a2-3)Gal(b1-3)GlcNAc
# How it was run: as §1
# [15] = target: Neu5Ac9Ac(a2-3)Gal(b1-4)GlcNAc
# How it was run: as §1
# [16] = target: Neu5Ac9Ac(a2-6)Gal(b1-4)GlcNAc
# How it was run: as §1
# [17] = target: Neu5Gc(a2-3)Gal(b1-3)GlcNAc
# How it was run: as §1
# [18] = target: Neu5Gc(a2-3)Gal(b1-3)[Fuc(a1-4)]GlcNAc
# How it was run: as §1
# Neu5Gc(a2-3)Gal(b1-4)Glc = target: Neu5Gc(a2-3)Gal(b1-4)Glc
# How it was run: as §1
# [19] = target: Neu5Gc(a2-3)Gal(b1-4)GlcNAc
# How it was run: as §1
# [20] = target: Neu5Gc(a2-3)Gal(b1-4)GlcNAc(b1-3)Gal(b1-4)GlcNAc(b1-2)Man(a1-3)[Neu5Gc(a2-3)Gal(b1-4)GlcNAc(b1-3)Gal(b1-4)GlcNAc(b1-2)Man(a1-6)]Man(b1-4)GlcNAc(b1-4)GlcNAc
# How it was run: as §1
# [21] = target: Neu5Gc(a2-3)Gal(b1-4)[Fuc(a1-3)]GlcNAc
# How it was run: as §1
# [22] = target: Neu5Gc(a2-6)Gal(b1-4)GlcNAc
# How it was run: as §1
# Neu5Gc(a2-6)GalNAc = target: Neu5Gc(a2-6)GalNAc
# How it was run: as §1
# [23] = target: Neu5Gc(a2-8)Neu5Ac(a2-3)Gal(b1-4)GlcNAc
# How it was run: as §1
# [24] = target: Neu5Gc(a2-8)Neu5Gc(a2-3)Gal(b1-4)GlcNAc
# How it was run: as §1
# [25] = target: Neu5Gc(a2-8)Neu5Gc(a2-3)Gal(b1-4)GlcNAc(b1-3)Gal(b1-4)GlcNAc
# How it was run: as §1
# [26] = target: Neu5Gc(a2-8)Neu5Gc(a2-6)Gal(b1-4)GlcNAc
# How it was run: as §1
# [27] = target: Neu5Gc(b2-6)Gal(b1-4)GlcNAc
# How it was run: as §1
binder,measurement,setting,value
B1,glycan array binding signal (z-score),Neu5Ac(a2-8)Neu5Ac,-0.258
same,glycan array binding signal (z-score),[1],0.167
same,glycan array binding signal (z-score),[2],3.14
same,glycan array binding signal (z-score),[3],-1.34
same,glycan array binding signal (z-score),[4],-1.33
same,glycan array binding signal (z-score),[5],-0.167
same,glycan array binding signal (z-score),[6],1.3
same,glycan array binding signal (z-score),[7],-0.395
same,glycan array binding signal (z-score),[8],1.23
same,glycan array binding signal (z-score),[9],-0.504
same,glycan array binding signal (z-score),[10],0.881
same,glycan array binding signal (z-score),[11],-0.332
same,glycan array binding signal (z-score),[12],-1.69
same,glycan array binding signal (z-score),[13],0.469
same,glycan array binding signal (z-score),Neu5Ac(b2-6)GalNAc,-0.416
same,glycan array binding signal (z-score),[14],0.1
same,glycan array binding signal (z-score),[15],-0.04
same,glycan array binding signal (z-score),[16],1.5
same,glycan array binding signal (z-score),[17],-0.593
same,glycan array binding signal (z-score),[18],-0.715
same,glycan array binding signal (z-score),Neu5Gc(a2-3)Gal(b1-4)Glc,0.564
same,glycan array binding signal (z-score),[19],-1.73
same,glycan array binding signal (z-score),[20],0.815
same,glycan array binding signal (z-score),[21],0.854
same,glycan array binding signal (z-score),[22],1.68
same,glycan array binding signal (z-score),Neu5Gc(a2-6)GalNAc,-0.218
same,glycan array binding signal (z-score),[23],-0.463
same,glycan array binding signal (z-score),[24],-0.602
same,glycan array binding signal (z-score),[25],-1.83
same,glycan array binding signal (z-score),[26],-0.404
same,glycan array binding signal (z-score),[27],1.09

# A run of entries from the list above, for reference:
binder,measurement,setting,value
B1,glycan array binding signal (z-score),[18],-0.715
same,glycan array binding signal (z-score),Neu5Gc(a2-3)Gal(b1-4)Glc,0.564
